Reference: patent US20230075925A1, “NON-PERIPHERAL QUATERNARY AMMONIUM-MODIFIED ZINC PHTHALOCYANINE AND PREPARATION METHOD AND USE THEREOF” (FUZHOU UNIVERSITY, priority 2020, published 2023)
Some entries share one result that the patent states for a list of compounds.

Test system: melanoma cells B16-F10 tumors (proximal and distal)
Assay: PDT / anti-PD-L1 combination therapy in bilateral B16-F10 tumor-bearing mouse model (tumor inhibition rate)
Type: in vivo
Details: PDT group (phthalocyanine+illumination), 100 μL of 200 μM, 685 nm 15 mW/cm^2 5 min, 14 days
Procedure: A bilateral tumor-bearing mouse model of melanoma cells B16-F10 (proximal and distal) was established. During PDT, the proximal referred to an illuminated side, and the distal referred to a non-illuminated side. The distribution and metabolism of photosensitizers in the tumor-bearing mouse were investigated by a small animal fluorescence imager and a tissue extraction method, and PDT was conducted under optimal conditions. The following 5 groups of experiments were set up, with 5 mice in each group: a PBS control group; an anti-PD-L1 antibody treatment group; a simple phthalocyanine (no illumination) treatment group; a phthalocyanine+illumination treatment group, namely a PDT group; and a phthalocyanine+illumination+anti-PD-L1 antibody treatment group, namely a combination therapy group. The anti-PD-L1 antibody was purchased from BioX cell.
In the combination therapy group, the PDT group and the simple photosensitizer group, 100 μL of a phthalocyanine compound (at a concentration of 200 μM, diluted with 0.5% CEL) was administered to each mouse. […]
From the first treatment, a body weight and a tumor volume of all mice were measured every other day, and a tumor size was calculated according to a formula: tumor volume=tumor length×width×height×π/6; after 14 consecutive days of observation, a tumor inhibition rate of each experimental group was calculated.

1-[4-(aminoethyl)phenoxy] zinc phthalocyanine [Comparative Example 1, reference compound]
tumor inhibition rate on distal tumors (unilluminated tumors): less than 2.5%
